Assay results from the supplement of paper PMC6411743.
± gives the standard deviation of the averaged measurements. Only a part is listed here, and it is no random draw.

The chains behind the UniProt entries cited, without tags or fusion partners. Where a name states a change or a piece, a line headed by the entry shows the natural chain unless it says otherwise.
UniProt Q01459: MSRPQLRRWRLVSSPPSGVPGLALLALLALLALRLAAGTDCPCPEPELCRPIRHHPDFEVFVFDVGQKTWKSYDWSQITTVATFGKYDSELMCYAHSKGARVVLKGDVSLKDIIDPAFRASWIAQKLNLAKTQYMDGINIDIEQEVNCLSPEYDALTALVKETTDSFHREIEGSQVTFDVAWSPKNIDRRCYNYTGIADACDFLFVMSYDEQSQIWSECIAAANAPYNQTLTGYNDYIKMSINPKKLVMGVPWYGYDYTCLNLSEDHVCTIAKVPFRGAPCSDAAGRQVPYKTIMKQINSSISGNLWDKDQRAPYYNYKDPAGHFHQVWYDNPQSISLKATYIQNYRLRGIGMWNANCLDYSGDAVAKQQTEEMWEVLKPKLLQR
UniProt Q06587: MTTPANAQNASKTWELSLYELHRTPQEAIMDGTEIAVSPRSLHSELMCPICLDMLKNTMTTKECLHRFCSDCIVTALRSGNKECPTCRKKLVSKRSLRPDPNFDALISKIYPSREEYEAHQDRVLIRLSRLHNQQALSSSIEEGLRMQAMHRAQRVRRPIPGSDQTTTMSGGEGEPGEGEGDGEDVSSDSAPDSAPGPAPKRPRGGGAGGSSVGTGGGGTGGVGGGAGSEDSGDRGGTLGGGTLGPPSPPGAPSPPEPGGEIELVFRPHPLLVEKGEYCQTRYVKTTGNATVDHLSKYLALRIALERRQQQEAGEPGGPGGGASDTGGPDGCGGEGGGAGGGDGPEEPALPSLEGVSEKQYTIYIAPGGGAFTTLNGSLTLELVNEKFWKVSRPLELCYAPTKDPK
UniProt Q01518, whole entry: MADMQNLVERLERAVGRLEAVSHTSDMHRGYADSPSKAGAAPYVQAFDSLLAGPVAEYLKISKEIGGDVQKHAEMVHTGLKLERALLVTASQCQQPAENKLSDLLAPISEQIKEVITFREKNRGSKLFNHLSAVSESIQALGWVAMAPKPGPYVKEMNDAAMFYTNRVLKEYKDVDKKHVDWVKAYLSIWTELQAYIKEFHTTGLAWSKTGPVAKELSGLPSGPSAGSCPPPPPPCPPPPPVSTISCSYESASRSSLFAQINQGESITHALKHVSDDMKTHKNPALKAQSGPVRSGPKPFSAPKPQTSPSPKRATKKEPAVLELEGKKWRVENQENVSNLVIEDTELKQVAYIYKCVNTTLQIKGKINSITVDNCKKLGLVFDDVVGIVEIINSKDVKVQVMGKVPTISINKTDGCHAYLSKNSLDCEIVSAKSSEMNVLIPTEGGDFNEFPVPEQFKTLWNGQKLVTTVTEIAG
UniProt P56381: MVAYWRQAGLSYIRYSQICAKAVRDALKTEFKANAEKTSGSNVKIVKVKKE
UniProt Q06136: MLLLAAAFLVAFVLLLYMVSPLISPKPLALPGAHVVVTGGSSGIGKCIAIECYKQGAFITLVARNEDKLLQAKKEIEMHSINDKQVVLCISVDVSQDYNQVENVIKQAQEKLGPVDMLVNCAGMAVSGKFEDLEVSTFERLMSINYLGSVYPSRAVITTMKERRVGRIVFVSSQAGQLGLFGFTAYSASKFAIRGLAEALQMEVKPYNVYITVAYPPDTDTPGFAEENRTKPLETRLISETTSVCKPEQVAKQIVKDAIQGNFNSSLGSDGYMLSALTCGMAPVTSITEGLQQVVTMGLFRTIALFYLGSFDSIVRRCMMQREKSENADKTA
UniProt P78417: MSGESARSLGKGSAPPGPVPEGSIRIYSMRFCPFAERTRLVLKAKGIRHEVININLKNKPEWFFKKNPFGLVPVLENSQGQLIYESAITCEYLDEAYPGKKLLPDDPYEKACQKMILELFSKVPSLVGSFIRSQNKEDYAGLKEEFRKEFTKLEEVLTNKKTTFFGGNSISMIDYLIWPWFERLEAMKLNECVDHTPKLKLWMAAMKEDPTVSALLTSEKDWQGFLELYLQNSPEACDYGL
UniProt Q08170: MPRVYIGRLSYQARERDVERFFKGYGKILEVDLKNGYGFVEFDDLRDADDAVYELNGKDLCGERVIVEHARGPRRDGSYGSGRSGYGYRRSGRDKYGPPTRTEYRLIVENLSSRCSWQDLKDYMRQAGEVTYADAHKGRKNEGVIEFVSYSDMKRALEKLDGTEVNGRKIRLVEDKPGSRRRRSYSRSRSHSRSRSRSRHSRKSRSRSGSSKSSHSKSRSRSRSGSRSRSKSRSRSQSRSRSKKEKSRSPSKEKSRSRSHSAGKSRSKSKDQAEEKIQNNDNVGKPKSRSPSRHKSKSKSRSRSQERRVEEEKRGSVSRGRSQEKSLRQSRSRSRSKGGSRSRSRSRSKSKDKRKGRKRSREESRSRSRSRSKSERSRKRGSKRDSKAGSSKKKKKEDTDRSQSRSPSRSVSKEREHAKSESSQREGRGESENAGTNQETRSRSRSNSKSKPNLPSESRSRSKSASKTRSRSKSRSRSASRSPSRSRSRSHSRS
UniProt Q05048: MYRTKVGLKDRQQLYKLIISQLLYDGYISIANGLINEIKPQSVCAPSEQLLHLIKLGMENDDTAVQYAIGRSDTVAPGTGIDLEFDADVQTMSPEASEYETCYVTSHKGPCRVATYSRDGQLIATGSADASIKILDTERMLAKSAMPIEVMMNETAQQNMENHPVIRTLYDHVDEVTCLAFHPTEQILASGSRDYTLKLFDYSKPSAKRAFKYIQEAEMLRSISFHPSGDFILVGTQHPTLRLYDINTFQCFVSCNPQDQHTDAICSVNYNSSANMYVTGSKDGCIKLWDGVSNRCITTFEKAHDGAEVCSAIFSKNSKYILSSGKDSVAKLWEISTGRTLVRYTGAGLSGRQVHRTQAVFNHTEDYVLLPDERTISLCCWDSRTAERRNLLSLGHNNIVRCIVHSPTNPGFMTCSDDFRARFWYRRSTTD
UniProt P62258: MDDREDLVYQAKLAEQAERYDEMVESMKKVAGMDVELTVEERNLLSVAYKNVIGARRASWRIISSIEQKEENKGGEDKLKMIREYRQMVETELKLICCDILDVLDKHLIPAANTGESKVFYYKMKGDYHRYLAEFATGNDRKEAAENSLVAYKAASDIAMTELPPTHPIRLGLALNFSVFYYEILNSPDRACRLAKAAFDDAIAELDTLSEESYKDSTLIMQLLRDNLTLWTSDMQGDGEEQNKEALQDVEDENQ
UniProt P61106, whole entry, looked up: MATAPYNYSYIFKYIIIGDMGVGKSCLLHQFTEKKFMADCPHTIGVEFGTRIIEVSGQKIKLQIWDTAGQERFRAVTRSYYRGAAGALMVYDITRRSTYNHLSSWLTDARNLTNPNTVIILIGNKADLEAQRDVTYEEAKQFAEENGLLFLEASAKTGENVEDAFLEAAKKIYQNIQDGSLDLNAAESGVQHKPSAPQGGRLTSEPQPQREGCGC
UniProt P60891: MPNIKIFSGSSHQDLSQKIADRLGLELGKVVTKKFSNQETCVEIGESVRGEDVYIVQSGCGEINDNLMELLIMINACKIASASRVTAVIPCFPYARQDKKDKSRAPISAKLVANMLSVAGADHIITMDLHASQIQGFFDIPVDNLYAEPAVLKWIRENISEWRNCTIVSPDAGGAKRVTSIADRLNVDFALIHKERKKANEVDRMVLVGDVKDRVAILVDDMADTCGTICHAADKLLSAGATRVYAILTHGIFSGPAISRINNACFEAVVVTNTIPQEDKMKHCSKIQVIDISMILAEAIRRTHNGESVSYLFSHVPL
UniProt P78316: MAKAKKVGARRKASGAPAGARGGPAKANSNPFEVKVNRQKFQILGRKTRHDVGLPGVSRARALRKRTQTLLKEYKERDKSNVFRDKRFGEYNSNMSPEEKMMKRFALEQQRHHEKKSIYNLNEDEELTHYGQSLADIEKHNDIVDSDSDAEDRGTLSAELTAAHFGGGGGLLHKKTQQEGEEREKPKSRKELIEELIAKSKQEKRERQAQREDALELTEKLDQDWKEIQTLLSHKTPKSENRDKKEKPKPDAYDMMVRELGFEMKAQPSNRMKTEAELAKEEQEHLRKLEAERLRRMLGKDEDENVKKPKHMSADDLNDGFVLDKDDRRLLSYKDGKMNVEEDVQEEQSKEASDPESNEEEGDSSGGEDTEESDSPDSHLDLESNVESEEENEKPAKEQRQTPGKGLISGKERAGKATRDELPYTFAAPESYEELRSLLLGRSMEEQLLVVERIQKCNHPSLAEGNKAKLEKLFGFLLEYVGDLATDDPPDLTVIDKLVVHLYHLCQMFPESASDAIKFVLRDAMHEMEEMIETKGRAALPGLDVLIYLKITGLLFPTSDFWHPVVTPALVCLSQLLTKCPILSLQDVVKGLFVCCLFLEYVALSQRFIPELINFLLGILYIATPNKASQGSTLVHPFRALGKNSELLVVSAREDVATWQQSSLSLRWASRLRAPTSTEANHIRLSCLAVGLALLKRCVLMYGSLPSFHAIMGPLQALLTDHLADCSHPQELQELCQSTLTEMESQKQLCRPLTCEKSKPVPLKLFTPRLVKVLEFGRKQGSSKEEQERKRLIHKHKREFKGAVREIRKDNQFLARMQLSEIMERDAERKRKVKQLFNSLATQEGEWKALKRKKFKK
UniProt Q01650: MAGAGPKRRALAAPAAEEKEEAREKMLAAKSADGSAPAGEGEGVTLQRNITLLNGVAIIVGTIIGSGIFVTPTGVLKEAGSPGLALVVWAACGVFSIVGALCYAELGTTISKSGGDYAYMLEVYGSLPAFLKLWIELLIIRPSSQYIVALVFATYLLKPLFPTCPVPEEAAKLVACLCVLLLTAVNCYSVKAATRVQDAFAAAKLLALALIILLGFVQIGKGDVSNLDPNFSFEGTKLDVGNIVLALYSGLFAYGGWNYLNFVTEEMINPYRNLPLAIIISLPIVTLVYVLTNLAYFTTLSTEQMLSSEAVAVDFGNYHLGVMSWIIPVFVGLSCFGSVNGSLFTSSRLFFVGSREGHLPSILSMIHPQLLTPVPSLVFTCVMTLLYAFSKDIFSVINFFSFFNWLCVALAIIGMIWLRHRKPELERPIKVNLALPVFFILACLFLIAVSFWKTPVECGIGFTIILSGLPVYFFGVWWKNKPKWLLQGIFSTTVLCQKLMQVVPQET
UniProt P78536: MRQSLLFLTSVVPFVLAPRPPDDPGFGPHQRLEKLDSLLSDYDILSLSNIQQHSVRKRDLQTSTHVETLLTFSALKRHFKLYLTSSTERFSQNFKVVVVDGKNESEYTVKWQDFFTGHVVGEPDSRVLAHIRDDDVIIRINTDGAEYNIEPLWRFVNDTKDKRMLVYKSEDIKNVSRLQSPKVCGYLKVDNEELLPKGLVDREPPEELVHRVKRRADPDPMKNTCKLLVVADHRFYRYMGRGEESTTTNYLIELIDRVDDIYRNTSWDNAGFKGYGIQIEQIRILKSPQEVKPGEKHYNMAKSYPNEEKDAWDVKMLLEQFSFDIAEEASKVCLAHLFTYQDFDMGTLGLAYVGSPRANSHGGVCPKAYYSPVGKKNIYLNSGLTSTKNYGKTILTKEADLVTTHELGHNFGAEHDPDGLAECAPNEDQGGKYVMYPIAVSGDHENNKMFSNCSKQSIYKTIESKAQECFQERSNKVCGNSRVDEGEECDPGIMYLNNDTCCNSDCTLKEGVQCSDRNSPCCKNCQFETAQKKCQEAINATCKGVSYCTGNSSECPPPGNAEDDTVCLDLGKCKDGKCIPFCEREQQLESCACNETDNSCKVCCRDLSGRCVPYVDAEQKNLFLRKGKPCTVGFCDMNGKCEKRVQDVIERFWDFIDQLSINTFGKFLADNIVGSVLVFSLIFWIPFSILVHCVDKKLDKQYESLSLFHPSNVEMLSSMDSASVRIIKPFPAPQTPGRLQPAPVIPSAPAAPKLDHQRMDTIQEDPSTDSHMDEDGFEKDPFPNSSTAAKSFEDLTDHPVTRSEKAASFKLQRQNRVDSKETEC
UniProt Q05519: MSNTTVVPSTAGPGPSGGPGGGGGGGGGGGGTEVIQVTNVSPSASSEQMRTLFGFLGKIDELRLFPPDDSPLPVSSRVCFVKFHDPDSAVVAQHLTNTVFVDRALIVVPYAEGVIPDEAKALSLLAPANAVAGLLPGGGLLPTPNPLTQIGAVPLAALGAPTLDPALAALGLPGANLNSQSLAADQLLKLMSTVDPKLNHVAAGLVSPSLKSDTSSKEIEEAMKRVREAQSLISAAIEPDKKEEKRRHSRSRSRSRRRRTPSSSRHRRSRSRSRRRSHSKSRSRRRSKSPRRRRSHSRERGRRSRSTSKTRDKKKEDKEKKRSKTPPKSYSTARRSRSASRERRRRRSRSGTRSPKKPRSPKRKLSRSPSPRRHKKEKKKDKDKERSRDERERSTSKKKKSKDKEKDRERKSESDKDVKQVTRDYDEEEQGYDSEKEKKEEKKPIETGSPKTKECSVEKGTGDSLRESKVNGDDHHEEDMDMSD
UniProt P60174, whole entry: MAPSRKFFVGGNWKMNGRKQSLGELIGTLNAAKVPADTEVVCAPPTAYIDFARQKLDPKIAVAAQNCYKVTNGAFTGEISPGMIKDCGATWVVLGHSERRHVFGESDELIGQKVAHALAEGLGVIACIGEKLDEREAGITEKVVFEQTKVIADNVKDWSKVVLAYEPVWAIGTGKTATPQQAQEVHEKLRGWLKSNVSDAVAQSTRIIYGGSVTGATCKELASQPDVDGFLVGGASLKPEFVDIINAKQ

Compound: Nc1ncnc2c1ncn2[C@@H]1O[C@H](COP(=O)(O)OP(=O)(O)NP(=O)(O)O)[C@@H](O)[C@H]1O [adenylyl imidodiphosphate]
Test: NP40-soluble protein abundance relative to vehicle (solubility fold change) (ratio); higher = more soluble protein in presence of AMP-PNP
Outline: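 Data come from three independent experiments in which Dounce-homogenised Jurkat crude lysate was treated at eight concentrations from 0.1 to 10 mM. Treatment ran 10 min at room temperature and then 3 min at 37 °C, after which 0.8% NP40 and benzonase were added for 60 min at 4 °C before ultracentrifugation. The supernatant underwent TMT labelling and LC-MS/MS, and vsn-normalised intensities were expressed as fold change against the detergent-processed vehicle in each replicate.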

Target	NP40-soluble protein abundance (concentration: 1mM)	NP40-soluble protein abundance (concentration: 2mM)	NP40-soluble protein abundance (concentration: 4mM)	NP40-soluble protein abundance (concentration: 6mM)	NP40-soluble protein abundance (concentration: 8mM)	NP40-soluble protein abundance (concentration: 10mM)
ACTR3 (UniProt P61158)	1.01 ± 0.039	0.916 ± 0.11	1.003 ± 0.0062	0.96 ± 0.031	1.02 ± 0.04	0.95 ± 0.031
CTBS (UniProt Q01459)	1 ± 0.023	1.05 ± 0.067	1.03 ± 0.017	1.09 ± 0.061	1.06 ± 0.051	1.07 ± 0.042
UniProt P61088	1.01 ± 0.026	0.977 ± 0.032	0.987 ± 0.079	1.03 ± 0.068	1.06 ± 0.061	1.05 ± 0.059
UniProt P61927	1.05 ± 0.042	1.11 ± 0.071	1.07 ± 0.018	1.08 ± 0.045	1.01 ± 0.091	1.18 ± 0.079
RING1 (UniProt Q06587)	1.03 ± 0.018	1.07 ± 0.02	1.07 ± 0.026	1.07 ± 0.036	1.08 ± 0.031	1.12 ± 0.046
GRB2 (UniProt P62993)	0.985 ± 0.035	0.943 ± 0.046	0.946 ± 0.023	0.972 ± 0.01	0.944 ± 0.037	0.918 ± 0.024
UniProt Q01518 and related entries	1.02 ± 0.018	1.02 ± 0.078	1.02 ± 0.036	1.06 ± 0.03	1.07 ± 0.034	1.06 ± 0.038
UniProt P56381	0.912 ± 0.049	1.03 ± 0.18	0.925 ± 0.053	1.1 ± 0.12	1.09 ± 0.1	1.15 ± 0.19
UniProt P61254	0.992 ± 0.12	0.988 ± 0.11	0.965 ± 0.1	0.937 ± 0.082	0.954 ± 0.12	1.03 ± 0.21
UniProt Q06136 and related entries	1.03 ± 0.043	1.02 ± 0.051	0.995 ± 0.062	0.9914 ± 0.0082	1 ± 0.035	0.991 ± 0.068
GSTO1 (UniProt P78417)	0.945 ± 0.039	0.8985 ± 0.0083	0.925 ± 0.048	1.03 ± 0.12	1.06 ± 0.082	0.994 ± 0.12
UniProt Q08170	0.997 ± 0.04	0.969 ± 0.033	0.869 ± 0.059	0.799 ± 0.072	0.781 ± 0.091	0.762 ± 0.13
LRP1 (UniProt Q07954)	0.954 ± 0.027	1.03 ± 0.068	0.979 ± 0.036	0.97 ± 0.039	0.96 ± 0.013	0.996 ± 0.042
CSTF1 (UniProt Q05048)	0.9781 ± 0.0088	0.931 ± 0.075	1 ± 0.015	1 ± 0.015	1.069 ± 0.0036	1.02 ± 0.046
FKBP3 (UniProt Q00688)	1.06 ± 0.047	1.122 ± 0.0017	1.02 ± 0.052	1.05 ± 0.055	1.01 ± 0.028	1.09 ± 0.097
UniProt P62258	0.989 ± 0.01	1.04 ± 0.063	0.988 ± 0.025	1.05 ± 0.069	1.03 ± 0.061	1 ± 0.074
UniProt P61201 and related entries	0.998 ± 0.019	0.97 ± 0.026	0.956 ± 0.055	1.03 ± 0.045	1.01 ± 0.047	0.992 ± 0.081
UniProt P61106	1.05 ± 0.033	1.03 ± 0.051	1.04 ± 0.04	1.05 ± 0.02	1.05 ± 0.02	1.054 ± 0.0088
UniProt Q02447-3|H0Y6K5 and related entries	1.02 ± 0.051	1.03 ± 0.072	1.02 ± 0.079	1.03 ± 0.067	1.02 ± 0.079	0.993 ± 0.1
UniProt P60891	0.815 ± 0.051	0.775 ± 0.07	0.79 ± 0.088	0.779 ± 0.039	0.795 ± 0.074	0.783 ± 0.14
NOP14 (UniProt P78316)	1 ± 0.011	1.04 ± 0.053	0.984 ± 0.048	0.961 ± 0.013	0.931 ± 0.012	0.973 ± 0.014
UniProt Q04864-2|Q04864	1.01 ± 0.023	0.974 ± 0.012	0.9971 ± 0.0093	1.01 ± 0.019	1.02 ± 0.012	1.01 ± 0.021
SLC7A5 (UniProt Q01650)	1 ± 0.021	1.01 ± 0.076	0.9696 ± 0.0028	0.9714 ± 0.0049	0.946 ± 0.042	0.943 ± 0.045
ADAM17 (UniProt P78536)	1.005 ± 0.0059	1.03 ± 0.061	0.983 ± 0.026	0.973 ± 0.043	0.964 ± 0.036	0.987 ± 0.023
UniProt Q05519 and related entries	1.12 ± 0.031	1.18 ± 0.11	1.21 ± 0.088	1.26 ± 0.049	1.34 ± 0.16	1.51 ± 0.2
UniProt Q00653 and related entries	1.01 ± 0.022	1.01 ± 0.038	1 ± 0.048	0.968 ± 0.044	0.957 ± 0.029	0.954 ± 0.037
XPC (UniProt Q01831)	1.03 ± 0.026	1.04 ± 0.033	1.05 ± 0.013	1.03 ± 0.045	1.03 ± 0.015	1.06 ± 0.013
UniProt P62875	0.923 ± 0.058	0.924 ± 0.041	0.948 ± 0.1	1.04 ± 0.072	1.02 ± 0.052	0.995 ± 0.099
UniProt P61160	1.02 ± 0.017	0.922 ± 0.1	0.983 ± 0.021	0.968 ± 0.0053	1.01 ± 0.029	0.948 ± 0.024
UniProt P60174 and related entries	1.027 ± 0.01	1.02 ± 0.042	0.967 ± 0.05	1.006 ± 0.0073	0.969 ± 0.03	0.961 ± 0.036

Quoted at random: 2 entries already listed, in no set order.
Target	NP40-soluble protein abundance (concentration: 1mM)	NP40-soluble protein abundance (concentration: 2mM)	NP40-soluble protein abundance (concentration: 4mM)	NP40-soluble protein abundance (concentration: 6mM)	NP40-soluble protein abundance (concentration: 8mM)	NP40-soluble protein abundance (concentration: 10mM)
UniProt Q01518 and related entries	1.02 ± 0.018	1.02 ± 0.078	1.02 ± 0.036	1.06 ± 0.03	1.07 ± 0.034	1.06 ± 0.038
NOP14 (UniProt P78316)	1 ± 0.011	1.04 ± 0.053	0.984 ± 0.048	0.961 ± 0.013	0.931 ± 0.012	0.973 ± 0.014
